Measurements: PubChem BioAssay AID504467 (National Center for Advancing Translational Sciences (NCATS), 2011)
In all, about 330,000 compounds went through this assay and about 7,700 (2.3%) were called active. Inconclusive results, whose numbers are uncertain, are shown with a selection of clear calls. Calls come from the whole dose curve; as a rule, active = well fitted inhibition curve with a large enough effect; inconclusive = small, poorly fitted or top-dose-only effect, or effect the other way; inactive = flat fitted curve, though single readings scatter. A potency beside an inconclusive call is a rough fit, not a confirmed value.

Test: qHTS screen for small molecules that inhibit ELG1-dependent DNA repair in human embryonic kidney (HEK293T) cells expressing luciferase-tagged ELG1; note: nearly all actives have a fitted effect of over 55% in size
Conditions: HEK293T ELG1-luciferase reporter, luminescence, 16 h, DNA damage induced by 5-fluorouridine; activity change, negative = inhibition: at 46.1 µM (top of the series)
Outline: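 DMSO vehicle served as the neutral condition. Each well held 2,000 cells given 5-fluorouridine plus compound; after 16 hr at 37 °C/5% CO2, ONE-Glo was added and luciferase measured 30 min later.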
% is set by controls: 0 for no effect and ±100 for the full control effect; potency is the fitted concentration of half-maximal effect.

| Compound | Potency | activity change, negative = inhibition |
| --- | --- | --- |
| Cc1cccc(C)c1OCC(=O)Nc1cccc(C(=O)O)c1 | inconclusive: 2.06 µM [activator, partial curve] | – |
| COc1cc(SC)ccc1C(=O)Nc1nccs1 | inconclusive: 1.16 µM [activator, partial curve] | – |
| Cc1ccc(-c2nnc(SCCC(=O)N3CCOCC3)o2)cc1 | inconclusive: 20.6 µM [activator, partial curve] | – |
| CCOc1cccc(-c2c(C(=O)N/N=C(\C)c3cccnc3)nnn2-c2nonc2N)c1 | inconclusive: 23.1 µM [inhibitor, partial curve, poor fit] | – |
| COc1ccc(C(c2nnnn2C(C)(C)C)N2CCN(c3nc4ccccc4s3)CC2)cc1 (centres undefined) | inconclusive: 29.1 µM [inhibitor, single point] | – |
| COc1ccc(CCNC(=O)c2cnn3c(C(F)F)cc(C)nc23)cc1OC | inconclusive: 16.4 µM [inhibitor, partial curve] | – |
| CCc1ccc(/C=C/C(=O)c2cc(Br)ccc(=O)c2O)cc1 | – | inactive: -17.4% |
| COc1ccc(C)cc1-n1nnnc1SCn1nnc2ccccc2c1=O | active: 5.8 µM | – |
| CCc1ccc(C2CC(c3ccccc3Cl)Nc3nc(N)nn32)cc1 (centres undefined) | inconclusive: 29.1 µM [activator, single point] | – |
| COc1ccc(CNC(=S)Nc2ccccc2C)cc1 | – | inactive: -0.39% |
| Cc1cc(N)n2nc(-c3ccccc3)c(-c3ccccc3)c2n1 | inconclusive: 31.6 µM [inhibitor, single point] | – |
| CCn1c(O)c(/C=C2\C=Nc3ccccc32)sc1=Nc1ccccc1 | inconclusive: 18.4 µM [activator, partial curve] | – |
| Cc1sc2nc3n(c(=O)c2c1C)CCCCC3 | inconclusive: 29.1 µM [activator, single point] | – |
| OCCNc1nc(-c2ccccc2)nc2c1oc1ccccc12 | inconclusive: 20.6 µM [inhibitor, partial curve, poor fit] | – |
| CC(=O)Nc1ccc(C2(O)COc3ccccc3O2)cc1 (centres undefined) | inconclusive: 18.4 µM [activator, single point] | – |
| CC(C)(C)n1cnc2cc(NCc3ccccc3O)ccc21 | inconclusive: 16.4 µM [activator, single point] | – |
| CN1C(=O)c2cccc(NC(=O)CCc3ccccc3)c2C1=O | – | inactive: -5.92% |
| CCCN(C(=O)CSc1cc(-c2ccccc2)c2ccc(OC)cc2n1)C1CCS(=O)(=O)C1 (centres undefined) | inconclusive: 23.1 µM [inhibitor, partial curve] | – |
| O=[N+]([O-])c1ccc(-c2cnc3ccccc3n2)cc1 | inconclusive: 1.16 µM [activator, full curve, poor fit] | – |
| Clc1ccc(-c2cc(-c3nnc4n3CCCCC4)c3ccccc3n2)cc1 | – | inactive: 22.3% |
| C#CCOc1c(Cl)cc(/C=N/NC(N)=S)cc1OCC | inconclusive: 29.1 µM [inhibitor, single point] | – |
| CCOC(=O)c1c(-c2cccc([N+](=O)[O-])c2)csc1NC(=O)CCCOc1ccccc1 | inconclusive: 23.1 µM [inhibitor, partial curve, poor fit] | – |
| N#Cc1c(N)nc2c(c1N)CC(=O)N2c1ccccc1-c1ccccc1 | inconclusive: 16.4 µM [activator, partial curve, poor fit] | – |

| Compound | Potency | activity change, negative = inhibition |
| --- | --- | --- |
| Cc1ccccc1OCC(=O)N/N=C/c1cc2ccccc2nc1Cl | – | inactive: -27.8% |
| C=CCN1C(=O)c2ccc(C(=O)NCCOc3ccccc3F)cc2C1=O | inconclusive: 25.9 µM [activator, single point] | – |
| CN(C)S(=O)(=O)c1cccc(NC(=O)c2n[nH]c(=O)c3ccccc23)c1 | inconclusive: 25.9 µM [inhibitor, single point] | – |
| O=C(CCCCCn1c(SCc2ccncc2)nc2ccccc2c1=O)NCc1ccco1 | active: 18.4 µM | – |
| Cc1ccnc(NC(=O)CC(c2ccccc2)c2ccccc2)n1 | – | inactive: -11.5% |
| O=C(CCNS(=O)(=O)c1ccccc1)N1CCN(C(c2ccccc2)c2ccccc2)CC1 | active: 23.1 µM | – |
| CCOC(=O)/C(C(=O)Nc1ccc(Br)cc1)=C1/NC(C)(C)Cc2ccccc21 | inconclusive: 18.4 µM [activator, single point] | – |
| CCOc1ccc(N2C(=O)CC(NC3CCN(C(=O)c4ccc(F)cc4)CC3)C2=O)cc1 (centres undefined) | – | inactive: 4.49% |
| CCOc1cc(C)c(S(=O)(=O)Nc2ccc(F)cc2)cc1C | inconclusive: 20.6 µM [inhibitor, partial curve, poor fit] | – |
| COc1ccc(OC)c(CN2CCCC(C(=O)N3CCCCC3)C2)c1 (centres undefined) | – | inactive: -19.7% |
| CC(Oc1ccc2c(c1)oc(=O)c1ccccc12)C(=O)NC(Cc1c[nH]c2ccc(O)cc12)C(=O)O (centres undefined) | – | inactive: -10.8% |
| CCCC(=O)Nc1ncnc2c1ncn2[C@@H]1O[C@@H]2COP(=O)(O)O[C@H]2[C@H]1OC(=O)CCC | inconclusive: 11.6 µM [activator, partial curve, poor fit] | – |
| Cn1nc(C(=O)N2CCN(S(=O)(=O)c3ccc(Cl)cc3)CC2)c2ccccc2c1=O | inconclusive: 29.1 µM [inhibitor, single point] | – |
| COCCC(=O)NC1CCCc2c1cnn2-c1cccc(C)c1C (centres undefined) | – | inactive: -16.5% |
| CCn1cc(C(=O)NCc2cccnc2)c(=O)c2cc(F)c(N3CCN(C(=O)c4ccco4)CC3)cc21 | active: 20.6 µM | – |
| N/C(=N\S(=O)(=O)c1cc(C(F)(F)F)cc(C(F)(F)F)c1)c1ccc(Cl)cc1 | inconclusive: 18.3 µM [inhibitor, single point] | – |
| Cc1ccc(OC(C)C(=O)Nc2ccc(Cl)cn2)c([N+](=O)[O-])n1 (centres undefined) | inconclusive: 7.3 µM [activator, single point] | – |
| Cc1ccc(NC(=O)CCC(=O)NNC(=O)C(c2ccccc2)c2ccccc2)c(C)c1 | – | inactive: 9.7% |
| COc1ccc(C2NC(=O)CS2)cc1 (centres undefined) | inconclusive: 23.1 µM [activator, single point] | – |
| CC(C)CC(=O)Nc1c2c(nn1-c1ccc(F)cc1)CS(=O)(=O)C2 | – | inactive: -0.869% |
| Cc1cc(-c2ccc(C)c(S(=O)(=O)NCc3cccc(Br)c3)c2)on1 | inconclusive: 32.6 µM [inhibitor, partial curve, poor fit] | – |
| CCCCC(=O)Nc1ccc(N2CCN(C(=O)c3ccco3)CC2)cc1 | inconclusive: 13 µM [activator, partial curve, poor fit] | – |
| CCCn1c(C)cc(C(=O)COC(=O)c2ccc[nH]c2=O)c1C | inconclusive: 2.91 µM [activator, full curve] | – |

| Compound | Potency | activity change, negative = inhibition |
| --- | --- | --- |
| CCOc1ccc(CCNC(=O)Cc2ccc(NC(=O)C3=C(C)OCCS3)cc2)cc1 | inconclusive: 6.51 µM [activator, partial curve] | – |
| COc1ccc(N(C)S(=O)(=O)c2cccc(C(=O)Nc3nc4ccccc4[nH]3)c2)cc1 | inconclusive: 18.3 µM [inhibitor, single point] | – |
| Cc1ccc(OCCNC(=O)c2ccc(C)cc2)cc1 | inconclusive: 23.1 µM [activator, single point] | – |
| Nc1cnc(CNc2ccccc2Cl)cn1 | inconclusive: 18.3 µM [activator, single point] | – |
| O=C(CSc1nnc(CNC(=O)c2cccs2)o1)Nc1ccccc1F | inconclusive: 23.1 µM [activator, partial curve, poor fit] | – |
| O=C1/C(=C/c2ccc(O)c([N+](=O)[O-])c2)SC(=S)N1Cc1ccccc1 | active: 18.3 µM | – |
| Cc1ccc(CCC(=O)Nc2cc(Cl)ccc2Cl)o1 | – | inactive: -9.14% |
| O=C(/C=C/c1ccccc1)c1ccccc1 | inconclusive: 14.6 µM [activator, single point] | – |
| COc1ccc(C(=O)NCC(=O)OCc2cccc(Br)c2)cc1 | – | inactive: -0.866% |
| O=C(NCCc1ccccc1)C1CCC(=O)N(Cc2ccc(Cl)cc2)C1 (centres undefined) | – | inactive: 1.3% |
| CSCCC(NS(=O)(=O)c1ccccc1F)C(=O)NCc1ccncc1 (centres undefined) | inconclusive: 1.16 µM [activator, single point] | – |
| O=C(Nc1ccc(Cl)cn1)c1cc2c(s1)-c1ccccc1OC2 | inconclusive: 3.26 µM [activator, single point] | – |
| COc1ccc(-n2c(C)cc(C)c(C(C)=O)c2=S)cc1 | – | inactive: 0.41% |
| O=C(O)c1c(C(=O)O)c(-c2ccc(Cl)c(Cl)c2)n2c1CSC2 | – | inactive: -0.896% |
| COc1ccc(OC(=O)c2cn(C)nc2C(F)(F)F)cc1 | inconclusive: 25.9 µM [activator, single point] | – |
| CCOc1ccc(OCCSc2nc3ccccc3o2)cc1 | inconclusive: 23.1 µM [activator, partial curve, poor fit] | – |
| Cc1ccc(-c2csc3nc4c5ccccc5c(NCCCN(C)C)nn4c(=O)c23)cc1 | inconclusive: 32.6 µM [activator, single point] | – |
| COc1ccc(-c2csc(Nc3ncccn3)n2)cc1C | inconclusive: 1.3 µM [activator, full curve] | – |
| O=C(Nc1nc2ccccc2[nH]1)Nc1ccccc1F | inconclusive: 1.3 µM [activator, full curve] | – |
| O=C(CCl)Nc1ccc(S(=O)(=O)NC2=NCCCCC2)cc1 | inconclusive: 29.1 µM [inhibitor, single point] | – |
| O=C(O)c1cc(NN=C2CCN(Cc3ccccc3)CC2)ccc1Cl | inconclusive: 20.6 µM [activator, partial curve] | – |
| CC(=O)c1ccc(N2CCN(C(=O)c3cc(C)on3)CC2)cc1 | inconclusive: 16.4 µM [activator, single point] | – |
| COc1ccc2c(c1)C(=O)[C@@H](O)[C@H](c1ccc(OC)c(Br)c1)O2 | inconclusive: 23.1 µM [inhibitor, partial curve, poor fit] | – |

Shown comma-delimited: part of the list above
Compound,Potency,"activity change, negative = inhibition"
O=C(Nc1nc2ccccc2[nH]1)Nc1ccccc1F,"inconclusive: 1.3 µM [activator, full curve]",–
O=C(CCl)Nc1ccc(S(=O)(=O)NC2=NCCCCC2)cc1,"inconclusive: 29.1 µM [inhibitor, single point]",–
O=C(O)c1cc(NN=C2CCN(Cc3ccccc3)CC2)ccc1Cl,"inconclusive: 20.6 µM [activator, partial curve]",–
CC(=O)c1ccc(N2CCN(C(=O)c3cc(C)on3)CC2)cc1,"inconclusive: 16.4 µM [activator, single point]",–
COc1ccc2c(c1)C(=O)[C@@H](O)[C@H](c1ccc(OC)c(Br)c1)O2,"inconclusive: 23.1 µM [inhibitor, partial curve, poor fit]",–
